Measurements published in PubChem BioAssay AID1347076 (National Center for Advancing Translational Sciences (NCATS), 2019).
The whole screen tested about 400,000 compounds, of which about 13,000 (3.2%) were called active. Inconclusive means that the source gave no clear call. Such entries were picked first, then a sample of the others. Calls come from the whole dose curve; as a rule, active = well fitted cell-killing curve with a large enough effect; inconclusive = small, poorly fitted or top-dose-only effect, or effect the other way; inactive = flat fitted curve, though single readings scatter. Potencies beside an inconclusive call are fits to weak or partial responses and may not hold up.

experiment: qHTS assay for MDR1-selective chemotherapeutics: Primary screen using the drug-selected MDR subline cells KB-V1; conditions: KB-V1 MDR cells viability, CellTiter-Glo, 72 h; activity change, negative = cytotoxicity: at 46.1 µM (top of the series); note: nearly all actives have a fitted effect of over 60% in size
Description: A prime difficulty in effectively treating cancer is the development of cellular resistance to multiple structurally unrelated anticancer drugs, a phenomenon known as multidrug resistance (MDR). […] Numerous strategies to overcome P-gp-mediated MDR have been explored, including the design of drugs that evade recognition and efflux, and development of inhibitors to block efflux and restore drug accumulation. […] An alternative approach is to exploit resistance by identifying drugs that target MDR cells over the non-resistant parental cells from which they were selected. […] The development of MDR1-selective agents represents a new strategy for resolving multidrug resistance, as it remains a long-standing clinical challenge for cancer chemotherapy.
Our goal is to identify compounds that selectively kill P-gp-expressing MDR cells. We will identify MDR1-selective compounds by comparing toxicity of compounds in the screening library against parental, drug-naive (KB-3-1) adenocarcinoma cells as well as their drug-selected MDR sub-line (KB-V1). The differential toxicity of compounds against these two cell lines will be used to identify MDR1-selective compounds, whose cytotoxicity is potentiated, rather than diminished, by P-gp expression. This assay will be utilized to conduct a quantitative high-throughput screen (qHTS) in collaboration with the NIH Chemical Genomics Center to identify selective agents, and probe hits arising from the screen will be validated using secondary assays and characterized through a well-established follow-up research program. This screen was run against the entire NCGC library collection of about 400,000 compounds.
NIH Molecular Libraries Probe Production Network [MLPCN]
NIH Chemical Genomics Center [NCGC]
PI: Michael Gottesman, National Cancer Institute, NIH
Briefly, 5 microL of media containing either KB-V1 cells (columns 1-2, 4-48) are dispensed into Greiner white, treated solid-bottom 1536-well assay plates (media-only control is added to column 3). Compounds are then transferred via Kalypsys pin tool equipped with 1536-pin array (10 nL slotted pins, V&P Scientific, San Diego, CA). Following addition of compound, the plates are incubated at 37 degrees C for 72 hours. CellTiter-Glo (2.5 µL/well) is then added, and the plates are read in a ViewLux reader (Perkin-Elmer, clear luminescence filter, 1 second exposure, 1x binning) following a 10 minute incubation. All cells are dispensed in DMEM phenol-red free media containing 10% FBS.
Library plates were screened starting from the lowest and proceeding to the highest concentration. Vehicle-only plates, with DMSO being pin-transferred to columns 5-48, will be inserted uniformly at the beginning and the end of each library in order to monitor and record any shifts in the background, which can be affected by reagent dispensers or loss in enzyme activity over time. Screening data will be corrected, normalized, and concentration-effect relationships will be derived by using publicly-available NCGC, NCATS curve fitting algorithms (http://ncgc.nih.gov/pub/openhts).
% is set by controls: 0 for no effect and ±100 for the full control effect; potency is the fitted concentration of half-maximal effect.

SMILES	Potency	activity change, negative = cytotoxicity
Cc1ccc2[nH]c(=O)c(CNS(=O)(=O)c3ccccc3)c(-c3ccccc3)c2c1	inconclusive: 20.6 µM [cytotoxic, single point]	–
Cc1ccc(S(=O)(=O)Nc2ccc(Cl)cc2)cc1NC(=O)c1cc2c(s1)CCCC2	active: 14.6 µM	–
COc1cc(/C=N/O)cc(Br)c1OCc1cccc(Cl)c1	inconclusive: 0.461 µM [cytotoxic, full curve, poor fit]	–
O=C(COC(=O)c1cc(=O)[nH]c2ccccc12)NCc1ccc(Cl)cc1	–	inactive: 27.9%
COc1cc(/C=N/NC(=O)COc2ccc(Cl)cc2)ccc1OS(=O)(=O)c1ccc(C)cc1	active: 16.4 µM	–
Cc1cc(C)c(S(=O)(=O)Nc2cnc3ccccc3c2)c(C)c1	active: 14.6 µM	–
CCc1nc2ccc(C(=O)NCCCN(C)C)cn2c1N(C)CCCc1ccccc1	–	inactive: 1.94%
Cc1cccc(-n2nnc(C(=O)NC3CCCc4ccccc43)c2N)c1 (configuration not stated)	inconclusive: 18.4 µM [cytotoxic, single point]	–
COc1cc(C(=O)NCCOc2ccccc2C)cc(OC)c1OC	–	inactive: -0.257%
C=CCNC(=S)NNC(=O)c1ccc(C)c(Cl)c1	inconclusive: 18.4 µM [cytotoxic, single point]	–
O=C(CSc1ccc(-c2ccco2)nn1)NCc1ccccc1Cl	active: 20.6 µM	–
O=C(Cc1ccccc1)NNc1ccc2ccccc2c1	–	inactive: -12%
Cc1ccc(C)c(NC(=O)c2ccc(S(=O)(=O)N(C)CC3CCCO3)cc2)c1 (configuration not stated)	inconclusive: 10.3 µM [cytotoxic, partial curve, poor fit]	–
CN(CC(=O)Nc1cccc(F)c1)C(=O)CCSc1ccc(F)cc1	inconclusive: 29.1 µM [cytotoxic, single point]	–
COC(=O)[C@]12CCCCC=C1N(CCC1=CCCCC1)C(=O)[C@H](CC(=O)NCCc1ccccc1OC)C2	–	inactive: -15%
Cc1ccc(S(=O)(=O)N2CCCCC2)cc1NC(=O)CN1C(=O)c2ccccc2S1(=O)=O	inconclusive: 23.1 µM [rising, single point]	–
CCOC(=O)CN1C(=O)CC(c2ccc([N+](=O)[O-])cc2)C1=O (configuration not stated)	–	inactive: -4.11%
CCC(=O)N/N=C/c1ccc(OS(=O)(=O)c2ccccc2)cc1	–	inactive: 11.1%
Cc1cc(C)n2cc(-c3ccc(Cl)cc3)c(C(=O)O)c2n1	inconclusive: 29.1 µM [cytotoxic, single point]	–
Cc1ccc(-c2csc(NC(=O)C3CSC4(C)CCC(=O)N34)n2)cc1 (configuration not stated)	inconclusive: 7.31 µM [cytotoxic, partial curve]	–
Cc1cc(=O)c2cc(C(=O)Nc3ccc(C)c(C)c3)ccc2[nH]1	inconclusive: 18.4 µM [rising, partial curve]	–
COC(=O)[C@]12CCCCC=C1N(Cc1ccc(Cl)cc1Cl)C(=O)[C@H](CC(=O)NCc1ccc(C)o1)C2	–	inactive: 0%
Cc1nn(-c2ccccc2)c2c1cc1c(=O)[nH]c(=O)nc-1n2-c1cccc(Cl)c1	–	inactive: 9.23%
Cc1ccc(C(=O)COC(=O)CNC(=O)COc2ccccc2C)cc1C	inconclusive: 29.1 µM [rising, single point]	–

SMILES	Potency	activity change, negative = cytotoxicity
CC(CNC(=O)CN1C(=O)NC2(CCOc3ccccc32)C1=O)c1ccccc1 (configuration not stated)	inconclusive: 23.1 µM [rising, partial curve, poor fit]	–
O=C(Nc1ccc(Cl)cc1)c1csc(-c2ccccc2)n1	inconclusive: 20.6 µM [cytotoxic, single point]	–
COc1cc(/C=N/Nc2nncn2/N=C/c2ccc(O)c(OC)c2)ccc1O	active: 23.1 µM	–
CC1=C(C(=O)N(C)C)CC(CC(=O)NCc2cccs2)C(=O)N1CCC1=CCCCC1 (configuration not stated)	–	inactive: -11.2%
Cc1ccc2oc(C(=O)Nc3ccc(S(=O)(=O)N(C)c4ccccc4)cc3)cc(=O)c2c1	–	inactive: -22.5%
COc1ccc(C(=O)N2CCC(c3nc4ccccc4s3)CC2)cc1Cl	inconclusive: 20.6 µM [cytotoxic, partial curve]	–
O=C(NCc1nnnn1-c1ccc(F)cc1)c1ccc(S(=O)(=O)N2CCOCC2)cc1	–	inactive: -1.81%
COc1cc(OC)c2c(-c3cccc(-c4ccc(N(C)C)cc4)c3)cc(=O)oc2c1	inconclusive: 3.26 µM [cytotoxic, full curve, poor fit]	–
CC(C)[C@H](N)C(=O)NC[C@H]1O[C@@H](n2cnc3c(N)ncnc32)[C@H](O)[C@@H]1O	–	inactive: 0%
O=C(CSc1nnc(-c2ccc3c(c2)OCO3)n1-c1ccccc1)c1ccc(Cl)cc1	active: 16.4 µM	–
Cc1cccc(CN2CCN(C(=O)CN(C)C(C)C(=O)Nc3ccc(C(N)=O)cc3)CC2)c1 (configuration not stated)	–	inactive: -1.11%
CCOc1cccc(C2C=C(c3ccc4c(c3)OCO4)NC(c3cccc(Br)c3)N2)c1O (configuration not stated)	inconclusive: 0.259 µM [cytotoxic, full curve]	–
Cc1cccc(NC(=O)Cn2ncc3c4ccccc4n(Cc4ccccc4)c3c2=O)c1C	inconclusive: 29.1 µM [rising, single point]	–
C/C(=N\O)c1ccc2[nH]ccc2c1	inconclusive: 0.231 µM [rising, full curve]	–
Cc1nn(Cc2ccccc2)c(=O)c2nn(-c3ccc(Cl)cc3)c(C)c12	active: 8.2 µM	–
CCC(=O)NC(=S)Nc1ccc(NC(=O)COc2ccccc2)cc1	inconclusive: 29.1 µM [cytotoxic, single point]	–
CCNC(=O)O/N=C(\C)c1sc(-c2ccc(Cl)cc2)nc1C	–	inactive: -20.3%
COc1ccccc1C(=O)NC(CCSC)C(=O)NCCCn1nc(C)cc1C (configuration not stated)	inconclusive: 23.1 µM [cytotoxic, single point]	–
CCc1c(C)[nH]n(-c2nc(-c3ccccc3)cs2)c1=O	inconclusive: 32.6 µM [cytotoxic, partial curve, poor fit]	–
CCC(Sc1nc2ccncc2[nH]1)C(=O)Nc1cc(Cl)ccc1C (configuration not stated)	inactive	–
COc1ccccc1C1(O)CCN(CC(=O)Nc2nc(-c3ccccc3)cs2)CC1	inconclusive: 5.8 µM [cytotoxic, full curve]	–
Nc1c(C(=O)N2CCOCC2)oc2ccccc12	inconclusive: 14.6 µM [rising, single point]	–
CC1(C)CC(=O)C=C(Nc2cc(-c3ccccc3)[nH]n2)C1	inconclusive: 16.4 µM [cytotoxic, single point]	–
Cn1cnc2c1c(=O)n(Cc1ccccc1)c(=O)n2C	–	inactive: 1.3%

Whole records, looked up by structure.
CCOc1cccc(C2C=C(c3ccc4c(c3)OCO4)NC(c3cccc(Br)c3)N2)c1O (configuration not stated) is listed with Potency: inconclusive: 0.259 µM [cytotoxic, full curve]
Cc1ccc2oc(C(=O)Nc3ccc(S(=O)(=O)N(C)c4ccccc4)cc3)cc(=O)c2c1 is listed with activity change, negative = cytotoxicity: inactive: -22.5%
COc1ccccc1C1(O)CCN(CC(=O)Nc2nc(-c3ccccc3)cs2)CC1 is listed with Potency: inconclusive: 5.8 µM [cytotoxic, full curve]

Further structures:

SMILES	Potency	activity change, negative = cytotoxicity
CCOC(=O)C1(CCCc2ccccc2)CCN(C(=O)c2ocnc2C)CC1	inconclusive: 29.1 µM [cytotoxic, single point]	–
O=C(Nc1ccccc1C(=O)NCc1ccccc1)c1ccccc1Br	inconclusive: 8.2 µM [cytotoxic, partial curve, poor fit]	–
Cc1ccc2c(/C=C/c3ccc(N(C)C)cc3)ccnc2c1C	inconclusive: 25.9 µM [cytotoxic, single point]	–
CCc1nc2c(OCC3COc4ccccc4O3)cccn2c1N(C)C(=O)c1ccccc1F (configuration not stated)	–	inactive: -12.9%
COc1ccccc1NC(=O)c1[nH]c(C)c(C(C)=O)c1C	inconclusive: 29.1 µM [cytotoxic, single point]	–
COCCCN1C(=O)C(CC(=O)NCCCN(C)C)CC(C(=O)N2CCCCCC2)=C1C (configuration not stated)	–	inactive: -12%
Cc1ccc(NC(=O)C(=Cc2ccc(C(=O)O)cc2)C(=O)Nc2ccc(C)cc2C)c(C)c1	inconclusive: 29.1 µM [cytotoxic, single point]	–
COc1cc2c(cc1OC)CN(C(=O)CCOc1ccccc1)CC2	inconclusive: 18.4 µM [cytotoxic, single point]	–
c1ccc(-c2nnc(SCCC3OCCCO3)o2)cc1	inconclusive: 29.1 µM [cytotoxic, single point]	–
CCCNC(=O)c1ccc2c(=O)n3c(-c4ccc(C)cc4)csc3nc2c1	inconclusive: 29.1 µM [cytotoxic, single point]	–
COc1ccccc1CNC(=O)c1c(O)nc2c(C)cccn2c1=O	inconclusive: 20.6 µM [cytotoxic, partial curve]	–
COc1ccc2c(c1)cc1c(=O)n(CC(=O)NC(C)C)nc(C)n12	inconclusive: 29.1 µM [rising, single point]	–
Cc1cccc(NC(=O)c2cc3n(n2)C(C(F)(F)F)CC(c2ccc4c(c2)OCO4)N3)c1 (configuration not stated)	active: 11.6 µM	–
CN1/C(=C\C=C(C#N)C#N)C(C)(C)c2ccccc21	–	inactive: 0%
CCN1CCc2c(sc(NC(=O)Cc3ccccc3)c2C(=O)OC)C1	–	inactive: -6.12%
CCOC(=O)C/C(C)=N/NC(=O)c1cccs1	–	inconclusive: 0.798%
COc1ccc2cc(CN(Cc3ccco3)Cc3nnnn3C3CCCCC3)c(=O)[nH]c2c1	inconclusive: 20.6 µM [cytotoxic, single point]	–
CCCOc1ccc(N2C(=O)CC(SC(=N)N3N=C(c4ccccc4)CC3c3ccccc3)C2=O)cc1 (configuration not stated)	inconclusive: 29.1 µM [cytotoxic, single point]	–
CCc1nnc(NC(=O)CSc2nnc(-c3ccccc3O)o2)s1	inconclusive: 29.1 µM [cytotoxic, single point]	–
CC(O)(c1cccnc1)c1nc(-c2cccc(C(F)(F)F)c2)cs1 (configuration not stated)	–	inactive: 0.752%
COC(=O)c1c(N)[nH]c(C(=O)c2ccccc2)c1-c1ccccc1Br	inconclusive: 20.6 µM [cytotoxic, single point]	–
C[C@@H](C(=O)Nc1ccc2ccccc2c1)[C@H]1C[C@]1(C)[C@H](NC(=O)c1cnccn1)c1ccccc1	inconclusive: 20.6 µM [rising, single point]	–
c1ccc(-c2nc(NCc3cccs3)c3ccccc3n2)cc1	–	inactive: 14.2%
COc1cc(CN2CCN(C(=O)c3cccc4ccccc34)CC2)cc(OC)c1OC	inconclusive: 20.6 µM [cytotoxic, partial curve, poor fit]	–
